# Laboratory results: the supplement of paper PMC6411743
# ± gives the standard deviation of the averaged measurements. The list shows a part of the results.
# Molecular target: T1, A0A087WUA5|Q9H223 (UniProt Q9H223)
# T1 sequence (whole entry): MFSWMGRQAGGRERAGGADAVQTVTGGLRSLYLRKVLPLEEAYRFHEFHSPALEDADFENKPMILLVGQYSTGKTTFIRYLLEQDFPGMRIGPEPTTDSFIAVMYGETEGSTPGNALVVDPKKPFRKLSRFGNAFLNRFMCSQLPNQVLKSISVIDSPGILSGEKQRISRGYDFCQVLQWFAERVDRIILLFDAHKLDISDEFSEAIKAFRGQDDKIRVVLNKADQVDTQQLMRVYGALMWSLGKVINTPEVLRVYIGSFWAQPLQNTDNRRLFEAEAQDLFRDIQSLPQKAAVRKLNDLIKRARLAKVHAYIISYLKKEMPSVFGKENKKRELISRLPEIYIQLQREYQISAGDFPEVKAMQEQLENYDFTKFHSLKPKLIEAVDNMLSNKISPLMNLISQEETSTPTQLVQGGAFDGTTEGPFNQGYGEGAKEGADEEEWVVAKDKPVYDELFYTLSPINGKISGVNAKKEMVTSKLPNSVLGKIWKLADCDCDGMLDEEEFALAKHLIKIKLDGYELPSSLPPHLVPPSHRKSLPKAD
# Experiment: NP40-soluble protein abundance relative to vehicle (solubility fold change) (ratio); higher = more soluble protein in presence of GTP
# Method in brief: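 Jurkat crude lysate prepared with a Dounce homogeniser was treated at eight concentrations spanning 0.1 to 10 mM, 10 min at room temperature then 3 min at 37 °C. Solubilisation with 0.8% NP40 and benzonase and ultracentrifugation preceded TMT labelling of the supernatant for LC-MS/MS. Fold change against the detergent-processed vehicle was determined per replicate from vsn-normalised intensities, across three independent experiments.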
smiles,measurement,setting,value
Nc1nc2c(ncn2[C@@H]2O[C@H](COP(=O)(O)OP(=O)(O)OP(=O)(O)O)[C@@H](O)[C@H]2O)c(=O)[nH]1 [guanosine triphosphate],NP40-soluble protein abundance,concentration: 0.1mM,0.985 ± 0.034
same,NP40-soluble protein abundance,concentration: 0.5mM,0.959 ± 0.04
same,NP40-soluble protein abundance,concentration: 1mM,0.957 ± 0.026
same,NP40-soluble protein abundance,concentration: 2mM,0.937 ± 0.03
same,NP40-soluble protein abundance,concentration: 4mM,0.947 ± 0.045
same,NP40-soluble protein abundance,concentration: 6mM,0.938 ± 0.024
same,NP40-soluble protein abundance,concentration: 8mM,0.938 ± 0.064
same,NP40-soluble protein abundance,concentration: 10mM,0.926 ± 0.065
